Measured values: article PMC6484411
Results are given in words; binding and its absence hold for the method and conditions named. For some of these results: In cells and extracts the contact can be indirect. Some entries that bind do so weakly or less than the wild type. For some of these results: Sequences can lack the tags named with a protein. Blank lines part the entries; values can stand above or below the molecule they belong to.

Sequences of proteins named here, by UniProt entry; tags and fusion partners are left off. A change or cut given only in a name is not applied to a line headed by its entry. Residues count along the entry.
UniProt P11835: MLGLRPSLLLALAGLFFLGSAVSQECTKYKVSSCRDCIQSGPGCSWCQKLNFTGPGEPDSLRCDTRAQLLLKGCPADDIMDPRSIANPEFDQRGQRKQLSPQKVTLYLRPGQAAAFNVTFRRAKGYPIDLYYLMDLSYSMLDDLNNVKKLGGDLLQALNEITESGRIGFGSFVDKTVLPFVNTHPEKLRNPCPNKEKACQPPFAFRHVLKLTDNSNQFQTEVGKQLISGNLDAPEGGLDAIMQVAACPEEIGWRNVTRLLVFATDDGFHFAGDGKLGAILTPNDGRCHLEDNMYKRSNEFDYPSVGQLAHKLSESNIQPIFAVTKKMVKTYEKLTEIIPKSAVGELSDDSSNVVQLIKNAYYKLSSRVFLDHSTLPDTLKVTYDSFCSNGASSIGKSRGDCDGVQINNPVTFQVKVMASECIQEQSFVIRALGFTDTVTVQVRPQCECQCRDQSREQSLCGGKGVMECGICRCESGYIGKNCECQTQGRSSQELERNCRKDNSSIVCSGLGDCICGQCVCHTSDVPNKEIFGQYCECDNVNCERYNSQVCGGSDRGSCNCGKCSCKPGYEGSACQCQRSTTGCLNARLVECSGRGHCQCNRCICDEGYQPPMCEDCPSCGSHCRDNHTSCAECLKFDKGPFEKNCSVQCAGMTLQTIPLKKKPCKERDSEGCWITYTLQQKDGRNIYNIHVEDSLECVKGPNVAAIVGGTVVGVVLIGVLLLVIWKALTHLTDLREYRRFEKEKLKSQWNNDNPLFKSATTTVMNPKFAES
1-447 fragment of CD18: residues 24-447 of P11835

How the values were obtained:
[1] = target: T1, mindin-Myc (full length mindin) (UniProt Q8BMS2); experiment: co-IP; HEK293T cells (stably expressing Mac-1) transfected with plv-Myc, mindin-Myc or fragments for 48 h; RIPA extracts; protein G-agarose with anti-Myc or anti-HA (Figure 3E: anti-CD18 or anti-Myc) overnight at 4 C; three RIPA washes; immunoblot
T1 sequence: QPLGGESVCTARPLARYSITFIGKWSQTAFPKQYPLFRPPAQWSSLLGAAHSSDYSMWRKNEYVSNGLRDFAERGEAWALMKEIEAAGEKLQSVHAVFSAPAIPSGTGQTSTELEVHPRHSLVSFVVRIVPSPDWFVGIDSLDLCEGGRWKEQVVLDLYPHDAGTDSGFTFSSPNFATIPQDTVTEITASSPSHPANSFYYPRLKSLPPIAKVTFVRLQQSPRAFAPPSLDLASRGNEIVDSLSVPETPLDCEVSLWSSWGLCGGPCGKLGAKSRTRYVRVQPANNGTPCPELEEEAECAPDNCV

[2] = target: mouse CD18 expressed in HEK293T cells stably expressing Mac-1 (mouse) (UniProt P11835); experiment: as above
[3] = target: endogenous CD18 of Mac-1 on RAW264.7 macrophages (mouse (endogenous in RAW264.7)) (UniProt P11835); experiment: radioligand binding; 200 uL of ^131I-mindin (approximately 0.15 kBq/100 uL) added to 3 x 10^4 cells (RAW264.7 or HEK293T stably expressing Mac-1) in 48-well plates; different incubation periods; washed three times with PBS, collected in 1 mol/L NaOH, gamma-counter; cell uptake percentage; only the binder purified
[4] = target: endogenous CD11b of Mac-1 on RAW264.7 macrophages (mouse (endogenous in RAW264.7)) (UniProt P05555); experiment: as above
[5] = target: mouse CD11b expressed in HEK293T cells stably expressing Mac-1 (mouse) (UniProt P05555); experiment: as above
[6] = target: mouse CD18 expressed in HEK293T cells stably expressing Mac-1 (mouse) (UniProt P11835); experiment: as above
[7] = target: mouse CD11b expressed in HEK293T cells stably expressing Mac-1 (mouse) (UniProt P05555); experiment: biodistribution of radiolabelled protein in xenografted mice; HEK293T control cells and HEK293T cells stably expressing Mac-1 grown intradermally in nude mice; ^131I-mindin (approximately 40 kBq/100 uL) by tail vein; tissues counted at 4 h or 24 h, %ID/g; only the binder purified
[8] = target: mouse CD18 expressed in HEK293T cells stably expressing Mac-1 (mouse) (UniProt P11835); experiment: as above
[9] = target: T2, 1-324 amino acid fragment of CD11b (mouse) (UniProt P05555); experiment: co-IP; HEK293T cells (stably expressing Mac-1) transfected with plv-Myc, mindin-Myc or fragments for 48 h; RIPA extracts; protein G-agarose with anti-Myc or anti-HA (Figure 3E: anti-CD18 or anti-Myc) overnight at 4 C; three RIPA washes; immunoblot
T2 sequence: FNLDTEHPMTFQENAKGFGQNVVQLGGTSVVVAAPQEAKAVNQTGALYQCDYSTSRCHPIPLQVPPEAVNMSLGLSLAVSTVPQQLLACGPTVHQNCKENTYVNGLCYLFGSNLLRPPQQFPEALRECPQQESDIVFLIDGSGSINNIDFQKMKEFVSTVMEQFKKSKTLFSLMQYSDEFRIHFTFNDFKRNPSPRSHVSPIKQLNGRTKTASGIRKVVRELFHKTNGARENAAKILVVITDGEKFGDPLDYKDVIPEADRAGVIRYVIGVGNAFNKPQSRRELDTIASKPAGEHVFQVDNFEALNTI

[10] = target: 1-447 fragment of CD18 (mouse) (UniProt P11835); experiment: as above
[11] = target: mouse CD11b expressed in HEK293T cells stably expressing Mac-1 (mouse) (UniProt P05555); experiment: as above

Molecule: mouse CD11b expressed in HEK293T cells stably expressing Mac-1 (from UniProt P05555 17-1153) (receptor)
binding [1]: binds
binding [2]: binds

B2: mindin-Myc (full length mindin) (protein, UniProt Q8BMS2 26-330)
chain: QPLGGESVCTARPLARYSITFIGKWSQTAFPKQYPLFRPPAQWSSLLGAAHSSDYSMWRKNEYVSNGLRDFAERGEAWALMKEIEAAGEKLQSVHAVFSAPAIPSGTGQTSTELEVHPRHSLVSFVVRIVPSPDWFVGIDSLDLCEGGRWKEQVVLDLYPHDAGTDSGFTFSSPNFATIPQDTVTEITASSPSHPANSFYYPRLKSLPPIAKVTFVRLQQSPRAFAPPSLDLASRGNEIVDSLSVPETPLDCEVSLWSSWGLCGGPCGKLGAKSRTRYVRVQPANNGTPCPELEEEAECAPDNCV
binding [9]: binds
binding [10]: binds
binding [11]: binds
binding [2]: binds

Further lines, results first:

binding [1]: binds
Molecule: mouse CD18 expressed in HEK293T cells stably expressing Mac-1 (from UniProt P11835 24-771) (receptor)

binding [3]: binds
binding [4]: binds
binding [5]: binds
binding [6]: binds
binding [7]: binds
binding [8]: binds
B1: Mouse recombinant mindin protein, ^131I-labelled (ligand, UniProt Q8BMS2 26-330)
chain: QPLGGESVCTARPLARYSITFIGKWSQTAFPKQYPLFRPPAQWSSLLGAAHSSDYSMWRKNEYVSNGLRDFAERGEAWALMKEIEAAGEKLQSVHAVFSAPAIPSGTGQTSTELEVHPRHSLVSFVVRIVPSPDWFVGIDSLDLCEGGRWKEQVVLDLYPHDAGTDSGFTFSSPNFATIPQDTVTEITASSPSHPANSFYYPRLKSLPPIAKVTFVRLQQSPRAFAPPSLDLASRGNEIVDSLSVPETPLDCEVSLWSSWGLCGGPCGKLGAKSRTRYVRVQPANNGTPCPELEEEAECAPDNCV
modifications: ^131I label (chloramine-T radioiodination)
